# PubChem BioAssay AID504847 (National Center for Advancing Translational Sciences (NCATS), 2011)
# Protein sequences, listed by entry. Tags and fused reporters are not part of them. Lines headed by an entry give the natural chain unless they say otherwise; changes in a name come on top.
# UniProt P11473: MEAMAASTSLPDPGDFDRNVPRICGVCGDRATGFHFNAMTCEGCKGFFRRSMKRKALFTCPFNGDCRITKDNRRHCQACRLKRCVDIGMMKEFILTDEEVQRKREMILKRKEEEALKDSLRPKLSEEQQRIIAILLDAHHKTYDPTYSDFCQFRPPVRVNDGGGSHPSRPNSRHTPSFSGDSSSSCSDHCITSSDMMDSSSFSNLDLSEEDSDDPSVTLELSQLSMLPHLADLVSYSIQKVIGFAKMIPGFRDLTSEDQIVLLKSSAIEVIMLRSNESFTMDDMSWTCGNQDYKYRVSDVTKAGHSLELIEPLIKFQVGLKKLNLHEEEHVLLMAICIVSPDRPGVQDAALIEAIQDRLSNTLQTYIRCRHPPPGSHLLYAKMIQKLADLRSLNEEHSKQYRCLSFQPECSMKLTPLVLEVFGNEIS
# “And” between values parts separate entries of the source, which are not always exact repeats. Equal entries are not always repeated. Among all 400,000 compounds or so, about 3,700 (0.93%) were called active. This list was built around the results that the source calls inconclusive (neither active nor inactive); the mix of calls is not that of the screen. Calls come from the whole dose curve; as a rule, active = well fitted inhibition curve with a large enough effect; inconclusive = small, poorly fitted or top-dose-only effect, or another doubt; inactive = no such curve, though single readings can be large or run the other way. A potency beside an inconclusive call is a rough fit, not a confirmed value.
# Molecular target: Vitamin D3 receptor (Homo sapiens) (UniProt P11473)
# Experiment: Inhibitors of the vitamin D receptor (VDR): qHTS
# Conditions: VDR-SRC2-3 peptide fluorescence polarization, 2 h; max response, negative = inhibition: hits give low values
# Outline: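 Fluorescence polarization assay of small-molecule disruption of VDR binding to coregulator peptide SRC2-3. Compounds and controls pin-transferred, then read after 2 h incubation at ambient room temperature.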
# % is set by controls: 0 for no effect and ±100 for the full control effect; potency is the fitted concentration of half-maximal effect.
Structure (SMILES),Potency,"max response, negative = inhibition"
CCC(C(=O)NC1CCCC1)N(C(=O)Cn1nnc(-c2ccc(C)o2)n1)c1ccc(F)cc1 (stereo not drawn),"inconclusive: 89.1 µM [inhibitor, single point]",
CCOC(=O)c1nn(-c2ccccc2C)c(=O)c2c(N)scc12,active: 35.5 µM,
Cc1ccc(/C=C2\SC(N3CCN(C(c4ccccc4)c4ccccc4)CC3)=NC2=O)o1,"inconclusive: 89.1 µM [inhibitor, single point]",
COC(=O)c1ccccc1NC(=S)NC(=O)c1ccc(C)cc1,"inconclusive: 79.4 µM [inhibitor, single point]",
Cc1occc1C(=O)Nc1cccc([N+](=O)[O-])c1,active: 22.4 µM,
CC(C)c1ccc(S(=O)(=O)N2CCN(C(=O)c3cc([N+](=O)[O-])ccc3N3CCOCC3)CC2)cc1,"inconclusive: 89.1 µM [inhibitor, partial curve, poor fit]",
Cc1ccc(S(=O)(=O)N2CCOCC2)cc1NC(=O)COc1ccc(C(=O)c2ccccc2)cc1,active: 89.1 µM,
COc1cc(C(Nc2ccccn2)c2ccc3ccc(C)nc3c2O)cc(OC)c1O (stereo not drawn),active: 17.8 µM,
CCOc1ccc(N(CC(=O)NC2CC2)S(=O)(=O)c2ccc(C)cc2)cc1,"inconclusive: 89.1 µM [inhibitor, single point]",
O=C(CC(O)c1ccncc1)c1ccccc1O (stereo not drawn),"inconclusive: 56.2 µM [inhibitor, partial curve, poor fit]",
CCC(=O)N1CCc2cc(S(=O)(=O)CCC(=O)Nc3cccc(F)c3)ccc21,,inactive: 9.63%
O=[N+]([O-])c1cc(S(=O)(=O)NC2=NCCCCC2)ccc1NCC1CCCCC1,,inactive: -2.23%
O=C(Cn1nc(-c2ccco2)ccc1=O)Nc1ccc(Br)cc1,"inconclusive: 89.1 µM [inhibitor, single point]",
O=C(/C=C/c1ccccc1)N/C(=C/c1ccccc1)C(=O)Nc1ccc(C(=O)O)cc1,"inconclusive: 89.1 µM [inhibitor, single point]",
C=C(C(=O)c1ccccc1)C(C)C(=C)C(=O)c1ccccc1,active: 79.4 µM,
CCOC(=O)c1sc(=S)n(C)c1NC(=O)c1ccccc1Cl,"inconclusive: 56.2 µM [inhibitor, partial curve, poor fit]",
COc1ccc(CNC2CCCc3ccccc32)c(OC)c1 (stereo not drawn),,inactive: 1.29%
S=c1ccss1,active: 20 µM,
CC(=O)Sc1nc(-c2ccccc2)[nH]c1S(=O)(=O)c1ccc(C)cc1,"inconclusive: 31.6 µM [inhibitor, single point]",
COc1ccc(N=Cc2sc(O)c3ccccc23)cc1,"inconclusive: 89.1 µM [inhibitor, partial curve, poor fit]",
CCN(CC)CC(=O)c1ccc(-c2ccccc2)cc1,active: 39.8 µM,
CCO[C@H]1OC(C(=O)Nc2ccccc2)=C[C@@H](c2ccc(Br)cc2)[C@@H]1CCCO,"inconclusive: 100 µM [inhibitor, single point]",

# An excerpt from above in order of molecular weight, smallest number first.
Structure (SMILES),Potency,"max response, negative = inhibition"
C=C(C(=O)c1ccccc1)C(C)C(=C)C(=O)c1ccccc1,active: 79.4 µM,
O=[N+]([O-])c1cc(S(=O)(=O)NC2=NCCCCC2)ccc1NCC1CCCCC1,,inactive: -2.23%
CCC(C(=O)NC1CCCC1)N(C(=O)Cn1nnc(-c2ccc(C)o2)n1)c1ccc(F)cc1 (stereo not drawn),"inconclusive: 89.1 µM [inhibitor, single point]",

# The list continues:

Structure (SMILES),Potency,"max response, negative = inhibition"
Cc1cccc(NC(=O)CC2SC(=O)N(c3ccccc3)C2=O)c1 (stereo not drawn),"inconclusive: 79.4 µM [inhibitor, partial curve, poor fit]",
O=C(Cc1coc2cc3c(cc12)CCC3)OCc1cc(=O)n2c(n1)sc1ccccc12,,inactive: -7.05%
O=C(/C=C/c1ccco1)N/C(=C\c1ccco1)C(=O)NCCc1nc2ccccc2[nH]1,,inactive: -5.55%
NCC1O[C@@H](O[C@H]2C(O)C(O[C@@H]3C(O[C@H]4OC(CO)C(O)C(O)C4N)C(N)CC(N)[C@H]3O)O[C@@H]2CO)C(N)C(O)C1O (stereo partly drawn),,inactive: -1.02%
Cn1cc(C(=O)N/N=C/C(Br)=C/c2ccccc2)ccc1=O,"inconclusive: 79.4 µM [inhibitor, partial curve, poor fit]",
CCCCCCCCCCCCCCCCCCc1ccc(C(=O)/C=C\C(=O)O)cc1,"inconclusive: 63.1 µM [inhibitor, single point]",
CCCSc1nc(O)c(C(c2ccc(OC)c(O)c2)c2c(O)nc(SCCC)n(C)c2=O)c(=O)n1C,active: 35.5 µM,
Cc1ccc(S(=O)(=O)NCc2ccco2)cc1C(N)=O,"inconclusive: 89.1 µM [inhibitor, single point]",
Cn1c(C(=O)NC2CCCC2)cc2c(=O)n(C)c3ccccc3c21,"inconclusive: 63.1 µM [inhibitor, partial curve, poor fit]",
O=C(O)CCN1C(=O)/C(=C\c2cccc(OCC(=O)Nc3ccc(Cl)cc3)c2)SC1=S,active: 14.1 µM,
CCOc1ccc(Oc2ccccc2NC(=O)CSCC(=O)Nc2cc(C)on2)cc1,,inactive: -6.55%
O=C(NCc1cccc(Cl)c1)N1CCN(S(=O)(=O)c2ccccc2F)CC1,,inactive: 11.6%
Clc1ccc(-[n+]2c(-c3cccc(Br)c3)[nH]c3nc4ccccc4nc32)cc1,,inactive: 0.68%
Cc1cc(C)c(C(=O)NCC2CCCO2)c(C)c1C(=O)NCC1CCCO1 (stereo not drawn),"inconclusive: 100 µM [inhibitor, single point]",
Cc1cc(C)c(S(=O)(=O)NCC2CCC(C(=O)NCCCN3CCC(C)CC3)CC2)c(C)c1 (stereo not drawn),"inconclusive: 10 µM [inhibitor, full curve, poor fit]",
CCOP(=O)(OCC)C(C#N)=C1SCN(c2ccccc2)CS1,"inconclusive: 89.1 µM [inhibitor, single point]",
COc1ccc(OC)c(C(=O)NC(CC(N)=O)c2ccc(NCCN3CCCC3)c([N+](=O)[O-])c2)c1 (stereo not drawn),"inconclusive: 100 µM [inhibitor, single point]",
Cc1nn2c(-c3ccccc3)ccnc2c1-c1ccccc1,,inactive: -9.02%
CC(C)=CCC/C(C)=C/CC/C(C)=C/CO,,inactive: -11.4% and inactive: -8.8% and inactive: -26.5%
CCC[C@@H](CN1CCC[C@H]1CN1C(N)=NC[C@@H]1Cc1ccccc1)N1C[C@@H]([C@H](C)CC)N(CCCC2CCCC2)C1=N,,inactive: 2.56%
CCOC(=O)c1cnc(SSc2ncc(C(=O)OCC)c(N)n2)nc1N,"inconclusive: 14.1 µM [inhibitor, full curve, poor fit]",
